The list shows a part of the results.
Tests used:
Experiment in all cases: log2 fold change, soluble protein after heating vs DMSO (PISA); higher = thermal stabilisation; K562 lysate, 10 uM; active = over 0.2 and 3.5 SD of the protein, either way, in both replicates (recomputed)
vemurafenib = compound: CCCS(=O)(=O)Nc1ccc(F)c(C(=O)c2c[nH]c3ncc(-c4ccc(Cl)cc4)cc23)c1F [vemurafenib]
Procedure, shortened: (§1)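 Following dounce homogenisation of K562 pellets in PBS pH 7.4 with 1 mM MgCl2, crude extract at 1 mg/mL protein was incubated for 30 min with 10 μM compound. Aliquots were then heated for 3 min over 48°C-58°C and pooled, NP-40 was added to 0.5% at 4°C, and soluble protein was recovered as the supernatant at 21,000xg for 90 min. Channel-sum-equalised TMTpro 16plex LC-MS/MS quantified this protein. Each value, from duplicates, is a log-two fold change in thermal stability relative to solvent controls.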

Amino acid sequences for entries named in this document (tags omitted). A change or cut given only in a name is not applied to a line headed by its entry.
UniProt Q6IPR1: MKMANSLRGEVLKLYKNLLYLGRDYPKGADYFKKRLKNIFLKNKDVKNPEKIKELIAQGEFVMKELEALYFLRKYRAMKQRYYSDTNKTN
UniProt Q9BYI3: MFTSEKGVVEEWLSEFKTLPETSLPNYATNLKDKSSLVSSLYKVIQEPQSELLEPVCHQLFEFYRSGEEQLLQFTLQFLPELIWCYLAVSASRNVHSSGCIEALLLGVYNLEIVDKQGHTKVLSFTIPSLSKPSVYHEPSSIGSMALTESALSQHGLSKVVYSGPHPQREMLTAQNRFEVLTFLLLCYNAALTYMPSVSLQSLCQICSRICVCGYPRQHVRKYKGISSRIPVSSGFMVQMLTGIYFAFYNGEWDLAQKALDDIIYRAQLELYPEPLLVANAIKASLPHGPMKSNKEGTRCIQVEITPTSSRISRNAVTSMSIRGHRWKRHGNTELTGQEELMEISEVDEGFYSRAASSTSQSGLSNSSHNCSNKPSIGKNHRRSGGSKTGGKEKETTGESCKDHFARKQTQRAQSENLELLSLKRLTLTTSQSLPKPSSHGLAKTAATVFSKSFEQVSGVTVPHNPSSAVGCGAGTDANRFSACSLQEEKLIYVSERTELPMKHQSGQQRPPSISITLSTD
UniProt P41212: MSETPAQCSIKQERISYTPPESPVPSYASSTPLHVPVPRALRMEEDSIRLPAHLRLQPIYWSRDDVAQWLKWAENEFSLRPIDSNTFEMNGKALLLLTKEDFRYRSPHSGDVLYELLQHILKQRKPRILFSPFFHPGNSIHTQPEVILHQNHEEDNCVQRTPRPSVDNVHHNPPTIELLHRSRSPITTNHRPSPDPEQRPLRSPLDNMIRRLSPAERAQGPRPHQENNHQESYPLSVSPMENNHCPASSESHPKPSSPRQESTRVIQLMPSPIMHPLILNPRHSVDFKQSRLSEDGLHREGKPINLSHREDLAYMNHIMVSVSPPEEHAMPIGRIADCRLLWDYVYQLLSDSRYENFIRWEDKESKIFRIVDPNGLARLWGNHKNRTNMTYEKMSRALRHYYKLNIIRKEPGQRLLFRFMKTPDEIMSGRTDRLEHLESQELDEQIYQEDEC
UniProt Q8WU58: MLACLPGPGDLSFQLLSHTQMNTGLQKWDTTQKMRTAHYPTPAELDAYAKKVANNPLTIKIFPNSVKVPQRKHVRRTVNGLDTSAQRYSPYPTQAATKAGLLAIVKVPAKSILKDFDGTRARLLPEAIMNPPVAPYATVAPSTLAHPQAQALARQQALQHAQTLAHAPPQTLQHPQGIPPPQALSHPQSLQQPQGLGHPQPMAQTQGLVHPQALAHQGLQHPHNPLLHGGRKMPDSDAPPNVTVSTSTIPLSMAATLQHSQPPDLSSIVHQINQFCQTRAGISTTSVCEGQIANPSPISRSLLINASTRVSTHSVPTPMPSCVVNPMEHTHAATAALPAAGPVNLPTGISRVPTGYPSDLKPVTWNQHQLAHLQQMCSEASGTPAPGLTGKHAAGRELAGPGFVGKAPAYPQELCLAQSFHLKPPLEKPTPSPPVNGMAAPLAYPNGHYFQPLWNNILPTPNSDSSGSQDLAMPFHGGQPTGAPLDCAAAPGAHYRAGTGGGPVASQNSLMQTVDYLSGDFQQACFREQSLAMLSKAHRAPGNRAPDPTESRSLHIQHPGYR
UniProt Q5T8I3: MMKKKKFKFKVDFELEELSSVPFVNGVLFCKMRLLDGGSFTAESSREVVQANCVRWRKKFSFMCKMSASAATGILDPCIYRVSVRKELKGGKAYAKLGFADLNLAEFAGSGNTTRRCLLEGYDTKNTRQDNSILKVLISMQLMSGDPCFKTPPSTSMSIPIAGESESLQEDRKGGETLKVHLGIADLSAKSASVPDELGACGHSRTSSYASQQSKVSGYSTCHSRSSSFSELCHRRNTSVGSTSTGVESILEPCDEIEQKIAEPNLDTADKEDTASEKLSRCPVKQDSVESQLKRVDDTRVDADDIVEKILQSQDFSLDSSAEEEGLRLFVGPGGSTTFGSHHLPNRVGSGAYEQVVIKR
UniProt Q96A65: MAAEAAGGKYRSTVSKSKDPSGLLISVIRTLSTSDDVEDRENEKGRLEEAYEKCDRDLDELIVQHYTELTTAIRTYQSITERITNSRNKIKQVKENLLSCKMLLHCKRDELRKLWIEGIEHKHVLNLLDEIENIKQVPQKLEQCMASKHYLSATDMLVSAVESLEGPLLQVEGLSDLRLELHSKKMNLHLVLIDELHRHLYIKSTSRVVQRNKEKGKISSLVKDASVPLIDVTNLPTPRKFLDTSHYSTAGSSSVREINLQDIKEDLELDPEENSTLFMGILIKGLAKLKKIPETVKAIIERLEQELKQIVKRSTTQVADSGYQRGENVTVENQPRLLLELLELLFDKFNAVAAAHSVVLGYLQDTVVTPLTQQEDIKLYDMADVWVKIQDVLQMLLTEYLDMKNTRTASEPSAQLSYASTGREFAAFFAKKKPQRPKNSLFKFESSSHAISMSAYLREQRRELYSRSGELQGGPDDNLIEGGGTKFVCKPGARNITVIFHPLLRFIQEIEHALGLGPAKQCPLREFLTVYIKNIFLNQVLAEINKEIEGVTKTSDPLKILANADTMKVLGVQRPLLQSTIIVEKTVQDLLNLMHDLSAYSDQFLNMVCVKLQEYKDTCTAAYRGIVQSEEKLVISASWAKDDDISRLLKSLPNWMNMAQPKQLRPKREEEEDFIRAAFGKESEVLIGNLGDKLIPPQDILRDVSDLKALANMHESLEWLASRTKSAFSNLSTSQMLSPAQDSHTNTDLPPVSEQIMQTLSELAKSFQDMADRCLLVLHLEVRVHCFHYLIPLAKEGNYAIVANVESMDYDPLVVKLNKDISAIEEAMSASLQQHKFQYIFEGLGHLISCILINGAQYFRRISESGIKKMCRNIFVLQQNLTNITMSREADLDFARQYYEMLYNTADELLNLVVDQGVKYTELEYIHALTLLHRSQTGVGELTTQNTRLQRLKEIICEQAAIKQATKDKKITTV
UniProt Q9NV70: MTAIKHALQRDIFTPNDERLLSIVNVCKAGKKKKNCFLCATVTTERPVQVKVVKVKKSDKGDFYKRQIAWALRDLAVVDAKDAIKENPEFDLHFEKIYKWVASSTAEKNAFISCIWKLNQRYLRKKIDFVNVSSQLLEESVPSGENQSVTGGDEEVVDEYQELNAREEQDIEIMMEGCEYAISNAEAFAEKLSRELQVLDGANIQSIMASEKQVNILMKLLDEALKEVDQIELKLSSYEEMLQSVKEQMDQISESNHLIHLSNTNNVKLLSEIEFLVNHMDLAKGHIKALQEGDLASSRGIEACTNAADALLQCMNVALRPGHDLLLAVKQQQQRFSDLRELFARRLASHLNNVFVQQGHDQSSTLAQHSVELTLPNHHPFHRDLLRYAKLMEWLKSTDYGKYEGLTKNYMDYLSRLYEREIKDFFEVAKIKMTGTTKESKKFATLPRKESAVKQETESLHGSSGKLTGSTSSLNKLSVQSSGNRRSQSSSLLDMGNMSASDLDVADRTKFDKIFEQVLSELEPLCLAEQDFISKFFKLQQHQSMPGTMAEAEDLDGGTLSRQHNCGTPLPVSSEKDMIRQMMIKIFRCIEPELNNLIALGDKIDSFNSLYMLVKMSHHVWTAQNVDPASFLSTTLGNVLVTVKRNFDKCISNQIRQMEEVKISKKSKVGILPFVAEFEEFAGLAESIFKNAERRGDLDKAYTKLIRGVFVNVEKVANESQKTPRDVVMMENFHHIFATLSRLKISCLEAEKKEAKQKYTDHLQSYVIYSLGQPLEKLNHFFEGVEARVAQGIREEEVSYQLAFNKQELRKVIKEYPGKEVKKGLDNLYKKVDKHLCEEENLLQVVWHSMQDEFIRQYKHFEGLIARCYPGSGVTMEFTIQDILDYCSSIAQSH
UniProt Q9UQ84: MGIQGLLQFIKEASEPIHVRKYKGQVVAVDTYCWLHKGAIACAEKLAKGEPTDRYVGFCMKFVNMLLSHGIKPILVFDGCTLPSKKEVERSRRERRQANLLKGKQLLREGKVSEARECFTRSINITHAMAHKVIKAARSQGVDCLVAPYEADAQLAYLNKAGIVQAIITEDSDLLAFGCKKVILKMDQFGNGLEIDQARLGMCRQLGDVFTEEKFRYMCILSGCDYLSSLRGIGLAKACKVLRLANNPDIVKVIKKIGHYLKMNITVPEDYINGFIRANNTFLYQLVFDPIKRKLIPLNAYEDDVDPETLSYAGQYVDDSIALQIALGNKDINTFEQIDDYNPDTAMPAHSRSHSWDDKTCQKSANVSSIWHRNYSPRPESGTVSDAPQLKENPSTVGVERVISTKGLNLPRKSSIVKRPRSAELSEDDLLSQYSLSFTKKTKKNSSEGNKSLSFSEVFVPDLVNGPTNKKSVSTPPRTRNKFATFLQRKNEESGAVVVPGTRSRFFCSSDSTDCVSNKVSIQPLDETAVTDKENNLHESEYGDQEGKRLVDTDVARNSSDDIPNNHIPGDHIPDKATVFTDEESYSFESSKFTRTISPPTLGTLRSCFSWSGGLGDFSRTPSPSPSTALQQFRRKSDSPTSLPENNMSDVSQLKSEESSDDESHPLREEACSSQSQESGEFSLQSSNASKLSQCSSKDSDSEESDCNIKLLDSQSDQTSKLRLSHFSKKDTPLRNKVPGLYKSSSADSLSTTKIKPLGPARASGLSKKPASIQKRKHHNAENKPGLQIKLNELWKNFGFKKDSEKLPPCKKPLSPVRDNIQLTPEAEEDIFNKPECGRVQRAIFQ
UniProt Q6P1L5: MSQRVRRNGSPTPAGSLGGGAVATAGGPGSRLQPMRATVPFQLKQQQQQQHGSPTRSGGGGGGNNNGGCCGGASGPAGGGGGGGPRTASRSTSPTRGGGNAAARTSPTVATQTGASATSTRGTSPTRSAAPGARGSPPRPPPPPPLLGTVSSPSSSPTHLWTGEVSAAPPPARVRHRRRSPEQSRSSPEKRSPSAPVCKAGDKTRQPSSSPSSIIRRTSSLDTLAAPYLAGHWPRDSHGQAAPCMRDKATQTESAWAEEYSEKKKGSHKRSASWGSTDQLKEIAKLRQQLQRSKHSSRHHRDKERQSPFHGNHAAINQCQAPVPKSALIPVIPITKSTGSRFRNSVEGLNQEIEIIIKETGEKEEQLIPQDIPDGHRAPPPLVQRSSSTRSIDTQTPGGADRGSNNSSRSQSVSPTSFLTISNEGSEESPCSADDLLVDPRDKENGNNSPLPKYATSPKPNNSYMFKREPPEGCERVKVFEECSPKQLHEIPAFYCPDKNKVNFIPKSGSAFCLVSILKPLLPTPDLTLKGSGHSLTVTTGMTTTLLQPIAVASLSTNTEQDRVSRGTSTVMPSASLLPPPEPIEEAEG
UniProt Q01469, whole entry, looked up: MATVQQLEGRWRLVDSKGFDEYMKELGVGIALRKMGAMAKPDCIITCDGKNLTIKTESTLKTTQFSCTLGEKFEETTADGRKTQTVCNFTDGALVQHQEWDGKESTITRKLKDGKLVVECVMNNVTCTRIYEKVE
UniProt Q96PV7: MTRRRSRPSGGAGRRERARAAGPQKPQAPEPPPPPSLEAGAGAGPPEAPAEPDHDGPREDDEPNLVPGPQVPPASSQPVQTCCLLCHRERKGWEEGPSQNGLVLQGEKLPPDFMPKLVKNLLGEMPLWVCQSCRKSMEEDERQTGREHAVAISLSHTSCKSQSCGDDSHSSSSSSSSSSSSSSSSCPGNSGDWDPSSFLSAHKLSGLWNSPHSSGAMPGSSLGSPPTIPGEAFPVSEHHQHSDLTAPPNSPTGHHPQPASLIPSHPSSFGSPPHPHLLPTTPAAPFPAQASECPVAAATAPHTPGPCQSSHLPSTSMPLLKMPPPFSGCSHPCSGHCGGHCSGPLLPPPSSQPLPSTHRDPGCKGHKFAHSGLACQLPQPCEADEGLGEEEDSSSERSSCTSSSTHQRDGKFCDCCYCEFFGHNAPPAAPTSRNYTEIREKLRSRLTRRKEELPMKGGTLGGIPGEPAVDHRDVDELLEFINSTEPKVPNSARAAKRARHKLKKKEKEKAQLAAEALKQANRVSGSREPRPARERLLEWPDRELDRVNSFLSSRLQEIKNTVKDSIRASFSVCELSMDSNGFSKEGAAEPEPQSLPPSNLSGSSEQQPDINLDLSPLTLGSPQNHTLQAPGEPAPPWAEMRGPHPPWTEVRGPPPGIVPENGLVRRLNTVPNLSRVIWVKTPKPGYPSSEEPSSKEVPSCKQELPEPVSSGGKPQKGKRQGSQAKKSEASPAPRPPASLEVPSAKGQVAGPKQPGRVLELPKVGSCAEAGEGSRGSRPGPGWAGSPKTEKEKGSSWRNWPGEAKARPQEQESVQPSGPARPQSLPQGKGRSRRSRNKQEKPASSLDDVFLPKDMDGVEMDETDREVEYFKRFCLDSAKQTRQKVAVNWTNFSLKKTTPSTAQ
UniProt Q9BVV8: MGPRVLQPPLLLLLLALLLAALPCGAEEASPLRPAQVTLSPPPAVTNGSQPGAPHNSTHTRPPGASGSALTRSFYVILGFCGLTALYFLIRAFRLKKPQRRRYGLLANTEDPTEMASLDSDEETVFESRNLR

[1] = compound: CCCS(=O)(=O)Nc1ccc(F)c(C(=O)c2c[nH]c3ncc(Cl)cc23)c1F
Procedure, shortened: as §1

barasertib = compound: CCN(CCCOc1ccc2c(Nc3cc(CC(=O)Nc4cccc(F)c4)[nH]n3)ncnc2c1)CCOP(=O)(O)O [barasertib]
Procedure, shortened: as §1

[2] = compound: CC[C@@H]1C(=O)N(C)c2cnc(Nc3ccc(C(=O)NC4CCN(C)CC4)cc3OC)nc2N1C1CCCC1
Procedure, shortened: as §1

volasertib = compound: CC[C@@H]1C(=O)N(C)c2cnc(Nc3ccc(C(=O)N[C@H]4CC[C@H](N5CCN(CC6CC6)CC5)CC4)cc3OC)nc2N1C(C)C [volasertib]
Procedure, shortened: as §1

[3] = compound: CCn1c(C(=O)N(C2CC2)C2CC2)cc2c3c(ncn3C)c(Nc3cc(C)n(C)n3)nc21
Procedure, shortened: as §1

[4] = compound: CCn1cc(-c2ccnc3[nH]c(-c4cccc(CN(C)C)c4)cc23)c(-c2ccc(NC(=O)N(C)C)cc2)n1
Procedure, shortened: as §1

[5] = compound: CN1CCC(CNc2ccc3ncc(-c4cccc(OC(F)(F)F)c4)n3n2)CC1
Procedure, shortened: as §1

saracatinib = compound: CN1CCN(CCOc2cc(OC3CCOCC3)c3c(Nc4c(Cl)ccc5c4OCO5)ncnc3c2)CC1 [saracatinib]
Procedure, shortened: as §1

sotrastaurin = compound: CN1CCN(c2nc(C3=C(c4c[nH]c5ccccc45)C(=O)NC3=O)c3ccccc3n2)CC1 [sotrastaurin]
Procedure, shortened: as §1

Target	log2 fold change (vemurafenib)	log2 fold change [1]	log2 fold change (barasertib)	log2 fold change [2]	log2 fold change (volasertib)	log2 fold change [3]	log2 fold change [4]	log2 fold change [5]	log2 fold change (saracatinib)	log2 fold change (sotrastaurin)
ERLIN2 (UniProt O94905)	inactive: -0.003	inactive: 0.012	inactive: 0.021	inactive: 0.05	inactive: -0.029	inactive: 0.012	active: 0.384	inactive: -0.135	inactive: 0.008	inactive: -0.008
ESF1 (UniProt Q9H501)	inactive: -0.012	inactive: 0.104	inactive: 0.03	inactive: -0.02	inactive: -0.118	inactive: -0.005	inactive: -0.022	inactive: -0.088	inactive: -0.017	inactive: -0.001
FAM76B (UniProt Q5HYJ3)	inactive: 0.048	inactive: -0.005		inactive: 0.04	inactive: 0.005	inactive: -0.008	inactive: 0.025	inactive: 0.007	inactive: -0.003	inactive: 0.027
EXOC6B (UniProt Q9Y2D4)	inactive: 0.01	inactive: 0.039		inactive: 0.038	inactive: -0.087					inactive: 0.003
FAM210A (UniProt Q96ND0)	inactive: 0.021	inactive: -0.016	inactive: -0.045	inactive: 0.036	inactive: 0.051	inactive: 0.031	inactive: -0.032	inactive: 0.039	inactive: 0	inactive: 0.014
EZH2 isoform 2 (UniProt Q15910)	inactive: 0.069	inactive: -0.024	inactive: -0.054	inactive: 0.083	inactive: -0.039	inactive: 0	inactive: 0.119	inactive: -0.151	inactive: 0.023	inactive: 0.047
FAM122A (UniProt Q96E09)	inactive: -0.045	inactive: 0.013	inactive: -0.063	inactive: 0.092	inactive: -0.025	inactive: -0.102	inactive: -0.026	inactive: 0.005	inactive: 0.014	inactive: 0.036
FAM49A (UniProt Q9H0Q0)	inactive: 0.009	inactive: 0.033	inactive: 0.283	inactive: 0.324	inactive: -0.066	inactive: 0.355	inactive: 0.031	inactive: -0.052		inactive: 0.061
ETFRF1 (UniProt Q6IPR1)	inactive: 0.084	inactive: -0.003	inactive: 0.012		inactive: -0.03	inactive: 0	inactive: -0.005	inactive: -0.03	inactive: -0.01	inactive: -0.002
FAM126A (UniProt Q9BYI3)	inactive: -0.062	inactive: 0.06	inactive: 0.111		inactive: -0.174	inactive: 0.064	inactive: -0.018	inactive: 0.166	inactive: 0.047	inactive: -0.007
ETV6 (UniProt P41212)	inactive: -0.108	inactive: 0.111		inactive: 0.045	inactive: 0.008	inactive: 0.092	inactive: -0.112	inactive: -0.093	inactive: -0.034	inactive: 0.048
FADS1, A0A0A0MR51	inactive: -0.041	inactive: 0.145	inactive: -0.018	inactive: 0.02	inactive: -0.187	inactive: -0.062	inactive: -0.021	inactive: -0.078	inactive: -0.026	inactive: -0.037
FAM222B (UniProt Q8WU58)	inactive: -0.027		inactive: 0.362	inactive: 0.036		inactive: 0.107			inactive: 0.04	inactive: -0.036
EXOSC7 (UniProt Q15024)	inactive: 0.001	inactive: 0.01	inactive: -0.011	inactive: 0.029	inactive: 0.045	inactive: -0.004	inactive: -0.126	inactive: 0.087	inactive: 0.008	inactive: -0.037
FAM193A, A0A1B0GVL4	inactive: 0.05	inactive: -0.06	inactive: 0.146	inactive: 0.393	inactive: -0.009		inactive: -0.117	inactive: 0.172		inactive: -0.003
FAM102B (UniProt Q5T8I3)	inactive: -0.002	inactive: 0.014	inactive: 0.093	inactive: 0.007	inactive: -0.022		inactive: 0.003	inactive: 0.013		inactive: 0.002

Target	log2 fold change (vemurafenib)	log2 fold change [1]	log2 fold change (barasertib)	log2 fold change [2]	log2 fold change (volasertib)	log2 fold change [3]	log2 fold change [4]	log2 fold change [5]	log2 fold change (saracatinib)	log2 fold change (sotrastaurin)
FAM111A (UniProt Q96PZ2)	inactive: -0.02	active: 0.432		inactive: -0.34	inactive: -0.045	inactive: 0.112			inactive: 0.055	inactive: -0.016
FAM185A (UniProt Q8N0U4)	inactive: 0.344	inactive: -0.075	inactive: -0.033		inactive: -0.068	inactive: -0.12	inactive: 0.045	inactive: 0.07	inactive: -0.017	inactive: -0.035
EXOC4 (UniProt Q96A65)	inactive: 0.079	inactive: 0.01	inactive: 0.055	inactive: -0.06	inactive: -0.055	inactive: 0.025	inactive: 0.022	inactive: -0.079	inactive: 0.006	inactive: 0.018
EXOC1 (UniProt Q9NV70)	inactive: 0	inactive: 0.027	inactive: 0.051	inactive: -0.106	inactive: -0.03	inactive: 0.082	inactive: 0.053	inactive: -0.119	inactive: 0	inactive: 0.02
FAM53B (UniProt Q14153)	inactive: 0.046		inactive: 0.009	inactive: 0.071		inactive: 0.059	inactive: -0.096	inactive: 0.13	inactive: 0.096	inactive: -0.149
EXOSC8 (UniProt Q96B26)	inactive: -0.116	inactive: 0.008	inactive: -0.037	inactive: 0.028	inactive: 0.018	inactive: -0.002	inactive: -0.049	inactive: 0.015	inactive: 0.011	inactive: 0.054
EXTL3 (UniProt O43909)	inactive: -0.112	inactive: 0.061			inactive: -0.135	inactive: 0.022	inactive: 0.075	inactive: -0.008	inactive: -0.04	inactive: -0.002
EXO1 (UniProt Q9UQ84)	inactive: -0.15	inactive: 0.009			inactive: -0.015	inactive: 0.153	inactive: -0.067	inactive: 0.208		inactive: 0.035
FAM177A1 isoform 2 (UniProt Q8N128)	inactive: -0.004	inactive: 0.004	inactive: 0.092		inactive: 0.032	inactive: -0.008	inactive: -0.045	inactive: -0.033	inactive: 0.048	inactive: -0.071
ERP29 (UniProt P30040)	inactive: -0.011	inactive: -0.017	inactive: -0.071	inactive: 0.03	inactive: 0.01	inactive: 0.016	inactive: 0.199	inactive: -0.082	inactive: -0.006	inactive: 0.003
FAM117B (UniProt Q6P1L5)	inactive: -0.093	inactive: 0.005			inactive: 0.02	inactive: -0.108	inactive: -0.083	inactive: -0.009	inactive: -0.039	inactive: 0.062
FABP5 (UniProt Q01469)	inactive: -0.087	inactive: 0.01	inactive: 0.032	inactive: -0.053	inactive: 0.047	inactive: 0.044	inactive: 0.066	inactive: -0.052	inactive: -0.045	inactive: -0.11
ETF1 (UniProt P62495)	inactive: 0.009	inactive: 0.004	inactive: -0.013	inactive: -0.028	inactive: 0.003	inactive: -0.029	inactive: 0.006	inactive: -0.008	inactive: -0.004	inactive: 0.018
FAM193B (UniProt Q96PV7)	inactive: 0.017	inactive: -0.089			inactive: -0.012		inactive: -0.134	inactive: -0.016		inactive: -0.318
FAM174C (UniProt Q9BVV8)		inactive: 0.013			inactive: 0.127		inactive: -0.378	inactive: -0.1		
F2 (UniProt P00734)		inactive: 0.153	inactive: -0.119	inactive: 0.029	inactive: 0.125	inactive: 0.031				

An excerpt of these results, bar-delimited.
Target | log2 fold change (vemurafenib) | log2 fold change [1] | log2 fold change (barasertib) | log2 fold change [2] | log2 fold change (volasertib) | log2 fold change [3] | log2 fold change [4] | log2 fold change [5] | log2 fold change (saracatinib) | log2 fold change (sotrastaurin)
FAM49A (UniProt Q9H0Q0) | inactive: 0.009 | inactive: 0.033 | inactive: 0.283 | inactive: 0.324 | inactive: -0.066 | inactive: 0.355 | inactive: 0.031 | inactive: -0.052 |  | inactive: 0.061
EXOSC7 (UniProt Q15024) | inactive: 0.001 | inactive: 0.01 | inactive: -0.011 | inactive: 0.029 | inactive: 0.045 | inactive: -0.004 | inactive: -0.126 | inactive: 0.087 | inactive: 0.008 | inactive: -0.037

— the supplement of paper PMC10849652
